The target in test [1] is Ubiquitin Specific Protease 9x (Usp9x) (mouse (endogenous in ES cells)) (UniProt P70398). Put plainly: co-IP; ES cell nuclear extracts (0.5 M NaCl lysis, diluted in 150 mM NaCl, 10 mM Tris pH 8, 0.5% sodium deoxycholate, 1% Triton X-100 buffer); IP with rabbit anti-Usp9x, anti-Ezh2 or IgG, Protein A Dynabeads, 4 °C; western blot.
Test [2] addresses Ezh2 (mouse (endogenous in ES cells)) (UniProt Q61188). The test is described as above.

Sequences of proteins named here, by UniProt entry; tags and fusion partners are left off.
UniProt P70398: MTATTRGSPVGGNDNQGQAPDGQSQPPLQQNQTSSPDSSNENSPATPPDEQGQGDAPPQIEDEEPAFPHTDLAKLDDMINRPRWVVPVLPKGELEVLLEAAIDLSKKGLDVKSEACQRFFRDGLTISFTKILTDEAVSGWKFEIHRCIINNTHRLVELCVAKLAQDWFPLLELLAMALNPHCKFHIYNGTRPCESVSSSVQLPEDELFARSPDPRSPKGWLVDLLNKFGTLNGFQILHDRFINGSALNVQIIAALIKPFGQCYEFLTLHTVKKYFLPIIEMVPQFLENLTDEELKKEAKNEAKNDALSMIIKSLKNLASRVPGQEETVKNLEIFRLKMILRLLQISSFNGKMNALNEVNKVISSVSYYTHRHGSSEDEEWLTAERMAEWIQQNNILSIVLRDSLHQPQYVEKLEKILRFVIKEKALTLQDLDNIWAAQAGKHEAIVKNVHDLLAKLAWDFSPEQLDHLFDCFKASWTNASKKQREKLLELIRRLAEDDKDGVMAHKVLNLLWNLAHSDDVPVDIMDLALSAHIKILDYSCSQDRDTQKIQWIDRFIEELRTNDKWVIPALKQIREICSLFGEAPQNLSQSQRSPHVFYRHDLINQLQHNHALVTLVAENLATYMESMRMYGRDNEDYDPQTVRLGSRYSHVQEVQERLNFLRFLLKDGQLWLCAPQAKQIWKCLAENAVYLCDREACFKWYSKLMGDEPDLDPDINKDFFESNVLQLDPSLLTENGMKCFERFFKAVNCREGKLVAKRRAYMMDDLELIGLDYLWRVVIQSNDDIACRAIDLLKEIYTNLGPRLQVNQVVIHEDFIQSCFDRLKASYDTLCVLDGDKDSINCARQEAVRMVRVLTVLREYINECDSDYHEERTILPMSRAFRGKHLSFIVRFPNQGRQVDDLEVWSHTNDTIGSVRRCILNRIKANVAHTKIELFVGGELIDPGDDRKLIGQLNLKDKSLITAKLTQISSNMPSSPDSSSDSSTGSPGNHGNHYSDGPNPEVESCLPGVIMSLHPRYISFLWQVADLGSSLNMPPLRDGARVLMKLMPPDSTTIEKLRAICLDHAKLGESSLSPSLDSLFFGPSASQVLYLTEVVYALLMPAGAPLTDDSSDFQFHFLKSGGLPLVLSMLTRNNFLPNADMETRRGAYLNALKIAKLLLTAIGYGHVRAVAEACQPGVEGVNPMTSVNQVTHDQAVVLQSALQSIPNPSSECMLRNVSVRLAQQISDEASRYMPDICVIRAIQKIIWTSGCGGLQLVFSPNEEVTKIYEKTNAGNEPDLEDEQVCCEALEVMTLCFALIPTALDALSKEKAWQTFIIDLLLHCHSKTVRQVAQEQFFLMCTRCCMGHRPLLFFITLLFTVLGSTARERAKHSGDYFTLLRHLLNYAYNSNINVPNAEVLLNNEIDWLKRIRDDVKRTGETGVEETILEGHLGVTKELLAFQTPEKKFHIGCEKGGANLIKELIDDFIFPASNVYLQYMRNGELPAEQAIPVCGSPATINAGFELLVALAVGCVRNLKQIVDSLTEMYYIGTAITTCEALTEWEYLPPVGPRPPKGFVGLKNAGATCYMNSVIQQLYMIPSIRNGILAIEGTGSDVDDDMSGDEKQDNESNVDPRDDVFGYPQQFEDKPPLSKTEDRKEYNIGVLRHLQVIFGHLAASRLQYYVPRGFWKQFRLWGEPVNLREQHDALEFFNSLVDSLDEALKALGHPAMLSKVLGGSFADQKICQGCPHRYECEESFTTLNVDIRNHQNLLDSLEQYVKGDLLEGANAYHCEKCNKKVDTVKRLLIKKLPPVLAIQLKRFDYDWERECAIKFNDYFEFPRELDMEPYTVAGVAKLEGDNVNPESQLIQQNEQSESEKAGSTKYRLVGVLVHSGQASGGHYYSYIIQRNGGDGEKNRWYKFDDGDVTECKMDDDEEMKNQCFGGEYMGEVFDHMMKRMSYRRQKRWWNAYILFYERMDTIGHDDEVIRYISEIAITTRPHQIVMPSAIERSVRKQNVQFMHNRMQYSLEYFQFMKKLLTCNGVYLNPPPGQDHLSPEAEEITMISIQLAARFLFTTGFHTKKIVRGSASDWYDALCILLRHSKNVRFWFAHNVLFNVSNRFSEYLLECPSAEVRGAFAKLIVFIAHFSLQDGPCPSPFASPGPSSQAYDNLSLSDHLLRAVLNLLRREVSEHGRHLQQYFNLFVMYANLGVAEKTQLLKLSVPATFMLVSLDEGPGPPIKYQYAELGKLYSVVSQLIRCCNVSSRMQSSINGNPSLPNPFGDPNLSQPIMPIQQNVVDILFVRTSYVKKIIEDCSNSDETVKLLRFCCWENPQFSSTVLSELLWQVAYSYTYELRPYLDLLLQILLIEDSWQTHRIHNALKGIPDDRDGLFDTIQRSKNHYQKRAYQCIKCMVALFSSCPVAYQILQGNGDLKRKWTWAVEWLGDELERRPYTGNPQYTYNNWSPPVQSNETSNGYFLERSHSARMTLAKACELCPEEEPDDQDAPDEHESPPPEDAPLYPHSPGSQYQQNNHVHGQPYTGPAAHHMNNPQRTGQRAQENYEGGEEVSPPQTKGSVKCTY
UniProt Q61188: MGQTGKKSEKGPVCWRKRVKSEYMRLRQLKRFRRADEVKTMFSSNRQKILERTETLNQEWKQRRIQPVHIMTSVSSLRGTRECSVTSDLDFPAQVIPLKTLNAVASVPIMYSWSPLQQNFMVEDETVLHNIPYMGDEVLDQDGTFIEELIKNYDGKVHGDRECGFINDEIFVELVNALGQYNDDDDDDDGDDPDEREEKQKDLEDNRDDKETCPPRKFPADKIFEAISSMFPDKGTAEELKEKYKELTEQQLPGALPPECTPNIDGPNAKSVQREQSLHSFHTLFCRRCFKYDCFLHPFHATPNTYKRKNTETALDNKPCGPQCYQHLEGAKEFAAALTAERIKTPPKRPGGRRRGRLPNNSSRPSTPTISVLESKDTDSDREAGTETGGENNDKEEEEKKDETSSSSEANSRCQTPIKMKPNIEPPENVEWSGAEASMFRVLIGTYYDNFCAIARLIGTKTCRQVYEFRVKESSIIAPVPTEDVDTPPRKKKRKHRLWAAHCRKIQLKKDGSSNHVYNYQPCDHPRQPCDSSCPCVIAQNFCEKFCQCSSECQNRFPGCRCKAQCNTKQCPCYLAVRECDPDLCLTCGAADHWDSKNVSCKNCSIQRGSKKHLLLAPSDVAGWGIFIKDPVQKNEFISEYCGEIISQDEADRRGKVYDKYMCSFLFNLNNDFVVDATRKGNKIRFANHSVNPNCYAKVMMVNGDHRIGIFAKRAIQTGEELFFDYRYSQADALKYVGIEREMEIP
UniProt Q80U70: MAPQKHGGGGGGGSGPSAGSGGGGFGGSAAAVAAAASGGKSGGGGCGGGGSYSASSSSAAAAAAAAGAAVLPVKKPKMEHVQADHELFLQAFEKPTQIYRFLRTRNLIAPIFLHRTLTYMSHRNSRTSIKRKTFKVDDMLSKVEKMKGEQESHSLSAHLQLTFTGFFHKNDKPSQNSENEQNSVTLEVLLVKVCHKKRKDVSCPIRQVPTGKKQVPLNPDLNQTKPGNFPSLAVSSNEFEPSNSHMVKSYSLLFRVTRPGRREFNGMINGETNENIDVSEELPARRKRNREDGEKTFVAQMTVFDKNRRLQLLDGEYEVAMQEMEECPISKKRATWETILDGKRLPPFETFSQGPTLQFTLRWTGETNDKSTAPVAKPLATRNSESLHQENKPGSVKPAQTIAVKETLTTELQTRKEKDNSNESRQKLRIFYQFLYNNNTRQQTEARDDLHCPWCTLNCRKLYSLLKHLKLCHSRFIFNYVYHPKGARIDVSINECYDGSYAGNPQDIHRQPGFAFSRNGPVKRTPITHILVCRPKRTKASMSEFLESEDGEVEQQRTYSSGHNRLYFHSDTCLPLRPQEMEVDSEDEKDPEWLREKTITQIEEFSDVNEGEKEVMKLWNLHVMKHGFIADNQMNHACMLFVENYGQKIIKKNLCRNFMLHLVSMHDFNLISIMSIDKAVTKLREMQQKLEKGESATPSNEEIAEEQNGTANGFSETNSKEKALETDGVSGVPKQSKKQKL

Results are given in words; binding and its absence hold for the method and conditions named. In cells and extracts the contact can be indirect. Some results given as binding are weak or reduced against the parent protein; the word gives no strength.

For the substance Ezh2 (from UniProt Q61188 1-746), the binding entry in test [1] is reported as “binds”. With Suz12 (from UniProt Q80U70 1-741), in test [1], the binding result was “binds”. For the substance “Ubiquitin Specific Protease 9x (Usp9x) (from UniProt P70398 1-2559) (enzyme)”, the binding result in test [2] is on record as “binds”.

For the origin of these results see PMC7994559.
